Measurements reported in PubChem BioAssay AID602196 (INSERM, 2012).
In all, the deposit lists about 23,000 reagents; shown is an unselected part. Of all reagents, 455 (2%) are marked active. 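Active includes both protection and sensitisation; some change values fall well beyond the stated -50 to +50 range.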 Entries without a mark were called inactive. Not all columns of the deposit are shown. Not stated in the record: the amount of reagent.

- Aim: 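Modifiers of cisplatin sensitivity in A549 cells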
- System: human A549 lung cancer cells
- Knock-down reagent: siRNA pair against human genes
- Timing: 48 h transfection before cisplatin; time from cisplatin to read-out not stated
- Treatment: cisplatin at a dose killing half of control-siRNA cells; exact dose and duration not given
- Measured: 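Shift in cisplatin death relative to control siRNA, from -50 (all cells die) to +50 (no cells die); siRNAs harmful on their own scored 0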
- Scale: two-siRNA summed score (-2 to +2): higher = both siRNAs protect from cisplatin killing; -2 means both sensitise
- Rule for the call: 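Each siRNA scores 0 if harmful alone by LDH or WST-1, otherwise +1 if it reduces and -1 if it increases cisplatin killing; a gene is active when both siRNAs agree (sum +2 or -2)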
- Calls: active = both siRNAs shift cisplatin killing the same way; inactive = no consistent shift, or siRNA harmful alone

Against DOLPP1, the values are two-siRNA summed score (-2 to +2) = 0.
SEPHS2 gave two-siRNA summed score (-2 to +2) = 0.
Against FUCA2, the values are two-siRNA summed score (-2 to +2) = 1.
SCAMP1 showed two-siRNA summed score (-2 to +2) = 0.
Depletion of TLR3 gave: two-siRNA summed score (-2 to +2) = 0.
For VRK1, the entry reads two-siRNA summed score (-2 to +2) = 0.
Depletion of RND3 gave: two-siRNA summed score (-2 to +2) = 0.

3 neighbouring reagents from above, quoted:
FUCA2 | two-siRNA summed score (-2 to +2) = 1
SCAMP1 | two-siRNA summed score (-2 to +2) = 0
TLR3 | two-siRNA summed score (-2 to +2) = 0

Further reagents follow:
With knock-down of XRCC6, the record shows two-siRNA summed score (-2 to +2) = 1.
IQSEC2 scored two-siRNA summed score (-2 to +2) = 0.
NPAS1 showed two-siRNA summed score (-2 to +2) = -1.
With knock-down of VPS45, the record shows two-siRNA summed score (-2 to +2) = 2 (active).
Against ARHGAP26, the entry reads two-siRNA summed score (-2 to +2) = 0.
LOC441469 gave two-siRNA summed score (-2 to +2) = 0.
With knock-down of TMEM165, the record shows two-siRNA summed score (-2 to +2) = -1.
With knock-down of KIAA1671, the screen gave two-siRNA summed score (-2 to +2) = 0.
After knock-down of TSG101 the results were two-siRNA summed score (-2 to +2) = 0.
Knock-down of PARP9 resulted in: two-siRNA summed score (-2 to +2) = -1.
Depletion of IMMT resulted in: two-siRNA summed score (-2 to +2) = 0.
KLK6 gave two-siRNA summed score (-2 to +2) = 0.
Against KLF7, the values are two-siRNA summed score (-2 to +2) = -1.
With knock-down of SPRING1, the record shows two-siRNA summed score (-2 to +2) = 0.
